Source: US20250283871A1, “COMPOSITIONS AND METHODS FOR MODULATING THE INTERACTION BETWEEN SS18-SSX FUSION ONCOPROTEIN AND NUCLEOSOMES” (Dana-Farber Cancer Institute, Inc., priority 2020, published 2025)

B1: ACSL3 (protein, UniProt O95573 1-720, looked up)
Fatty acid CoA ligase Acsl3: MNNHVSSKPSTMKLKHTINPILLYFIHFLISLYTILTYIPFYFFSESRQEKSNRIKAKPVNSKPDSAYRSVNSLDGLASVLYPGCDTLDKVFTYAKNKFKNKRLLGTREVLNEEDEVQPNGKIFKKVILGQYNWLSYEDVFVRAFNFGNGLQMLGQKPKTNIAIFCETRAEWMIAAQACFMYNFQLVTLYATLGGPAIVHALNETEVTNIITSKELLQTKLKDIVSLVPRLRHIITVDGKPPTWSEFPKGIIVHTMAAVEALGAKASMENQPHSKPLPSDIAVIMYTSGSTGLPKGVMISHSNIIAGITGMAERIPELGEEDVYIGYLPLAHVLELSAELVCLSHGCRIGYSSPQTLADQSSKIKKGSKGDTSMLKPTLMAAVPEIMDRIYKNVMNKVSEMSSFQRNLFILAYNYKMEQISKGRNTPLCDSFVFRKVRSLLGGNIRLLLCGGAPLSATTQRFMNICFCCPVGQGYGLTESAGAGTISEVWDYNTGRVGAPLVCCEIKLKNWEEGGYFNTDKPHPRGEILIGGQSVTMGYYKNEAKTKADFFEDENGQRWLCTGDIGEFEPDGCLKIIDRKKDLVKLQAGEYVSLGKVEAALKNLPLVDNICAYANSYHSYVIGFVVPNQKELTELARKKGLKGTWEELCNSCEMENEVLKVLSEAAISASLEKFEIPVKIRLSPEPWTPETGLVTDAFKLKRKELKTHYQADIERMYGRK
B2: PTPMT1 (protein, UniProt Q8WUK0 28-201, looked up)
Phosphatidylglycerophosphatase …: KVPGRAHRDWYHRIDPTVLLGALPLRSLTRQLVQDENVRGVITMNEEYETRFLCNSSQEWKRLGVEQLRLSTVDMTGIPTLDNLQKGVQFALKYQSLGQCVYVHCKAGRSRSATMVAAYLIQVHKWSPEEAVRAIAKIRSYIHIRPGQLDVLKEFHKQITARATKDGTFVISKT
B3: ABCF2 (protein, UniProt Q9UG63 1-623, looked up)
ATP-binding cassette …: MPSDLAKKKAAKKKEAAKARQRPRKGHEENGDVVTEPQVAEKNEANGRETTEVDLLTKELEDFEMKKAAARAVTGVLASHPNSTDVHIINLSLTFHGQELLSDTKLELNSGRRYGLIGLNGIGKSMLLSAIGKREVPIPEHIDIYHLTREMPPSDKTPLHCVMEVDTERAMLEKEAERLAHEDAECEKLMELYERLEELDADKAEMRASRILHGLGFTPAMQRKKLKDFSGGWRMRVALARALFIRPFMLLLDEPTNHLDLDACVWLEEELKTFKRILVLVSHSQDFLNGVCTNIIHMHNKKLKYYTGNYDQYVKTRLELEENQMKRFHWEQDQIAHMKNYIARFGHGSAKLARQAQSKEKTLQKMMASGLTERVVSDKTLSFYFPPCGKIPPPVIMVQNVSFKYTKDGPCIYNNLEFGIDLDTRVALVGPNGAGKSTLLKLLTGELLPTDGMIRKHSHVKIGRYHQHLQEQLDLDLSPLEYMMKCYPEIKEKEEMRKIIGRYGLTGKQQVSPIRNLSDGQKCRVCLAWLAWQNPHMLFLDEPTNHLDIETIDALADAINEFEGGMMLVSHDFRLIQQVAQEIWVCEKQTITKWPGDILAYKEHLKSKLVDEEPQLTKRTHNV
B4: MGAT2 (protein, UniProt Q10469 1-447, looked up)
Alpha-1,6-mannosyl-glycoprotei …: MRFRIYKRKVLILTLVVAACGFVLWSSNGRQRKNEALAPPLLDAEPARGAGGRGGDHPSVAVGIRRVSNVSAASLVPAVPQPEADNLTLRYRSLVYQLNFDQTLRNVDKAGTWAPRELVLVVQVHNRPEYLRLLLDSLRKAQGIDNVLVIFSHDFWSTEINQLIAGVNFCPVLQVFFPFSIQLYPNEFPGSDPRDCPRDLPKNAALKLGCINAEYPDSFGHYREAKFSQTKHHWWWKLHFVWERVKILRDYAGLILFLEEDHYLAPDFYHVFKKMWKLKQQECPECDVLSLGTYSASRSFYGMADKVDVKTWKSTEHNMGLALTRNAYQKLIECTDTFCTYDDYNWDWTLQYLTVSCLPKFWKVLVPQIPRIFHAGDCGMHHKKTCRPSTQSAQIESLLNNNKQYMFPETLTISEKFTVVAISPPRKNGGWGDIRDHELCKSYRRLQ
B5: MBOAT7 (protein, UniProt Q96N66 1-472, looked up)
Membrane-bound …: MSPEEWTYLVVLLISIPIGFLFKKAGPGLKRWGAAAVGLGLTLFTCGPHTLHSLVTILGTWALIQAQPCSCHALALAWTFSYLLFFRALSLLGLPTPTPFTNAVQLLLTLKLVSLASEVQDLHLAQRKEMASGFSKGPTLGLLPDVPSLMETLSYSYCYVGIMTGPFFRYRTYLDWLEQPFPGAVPSLRPLLRRAWPAPLFGLLFLLSSHLFPLEAVREDAFYARPLPARLFYMIPVFFAFRMRFYVAWIAAECGCIAAGFGAYPVAAKARAGGGPTLQCPPPSSPEKAASLEYDYETIRNIDCYSTDFCVRVRDGMRYWNMTVQWWLAQYIYKSAPARSYVLRSAWTMLLSAYWHGLHPGYYLSFLTIPLCLAAEGRLESALRGRLSPGGQKAWDWVHWFLKMRAYDYMCMGFVLLSLADTLRYWASIYFCIHFLALAALGLGLALGGGSPSRRKAASQPTSLAPEKLREE
B6: EPB41L3 (protein, UniProt Q9Y2J2 1-1087, looked up)
Band 4.1-like protein 3: MTTESGSDSESKPDQEAEPQEAAGAQGRAGAPVPEPPKEEQQQALEQFAAAAAHSTPVRREVTDKEQEFAARAAKQLEYQQLEDDKLSQKSSSSKLSRSPLKIVKKPKSMQCKVILLDGSEYTCDVEKRSRGQVLFDKVCEHLNLLEKDYFGLTYRDAENQKNWLDPAKEIKKQVRSGAWHFSFNVKFYPPDPAQLSEDITRYYLCLQLRDDIVSGRLPCSFVTLALLGSYTVQSELGDYDPDECGSDYISEFRFAPNHTKELEDKVIELHKSHRGMTPAEAEMHFLENAKKLSMYGVDLHHAKDSEGVEIMLGVCASGLLIYRDRLRINRFAWPKVLKISYKRNNFYIKIRPGEFEQFESTIGFKLPNHRAAKRLWKVCVEHHTFFRLLLPEAPPKKFLTLGSKFRYSGRTQAQTRRASALIDRPAPYFERSSSKRYTMSRSLDGEVGTGQYATTKGISQTNLITTVTPEKKAEEERDEEEDKRRKGEEVTPISAIRHEGKSPGLGTDSCPLSPPSTHCAPTSPTELRRRCKENDCKLPGYEPSRAEHLPGEPALDSDGPGRPYLGDQDVAFSYRQQTGKGTTLFSFSLQLPESFPSLLDDDGYLSFPNLSETNLLPQSLQHYLPIRSPSLVPCFLFIFFFLLSASFSVPYALTLSFPLALCLCYLEPKAASLSASLDNDPSDSSEEETDSERTDTAADGETTATESDQEEDAELKAQELEKTQDDLMKHQTNISELKRTFLETSTDTAVTNEWEKRLSTSPVRLAARQEDAPMIEPLVPEETKQSSGEKLMDGSEIFSLLESARKPTEFIGGVTSTSQSWVQKMETKTESSGIETEPTVHHLPLSTEKVVQETVLVEERRVVHASGDASYSAGDSGDAAAQPAFTGIKGKEGSALTEGAKEEGGEEVAKAVLEQEETAAASRERQEEQSAAIHISETLEQKPHFESSTVKTETISFGSVSPGGVKLEISTKEVPVVHTETKTITYESSQVDPGTDLEPGVLMSAQTITSETTSTTTTTHITKTVKGGISETRIEKRIVITGDADIDHDQALAQAIKEAKEQHPDMSVTKVVVHKETEITPEDGED
B7: PNPLA6 (protein, UniProt Q8IY17 1-1375, looked up)
Patatin-like phospholipase …: MEAPLQTGMMGTSSHGLATNSSGAKVAERDGFQDVLAPGEGSAGRICGAQPVPFVPQVLGVMIGAGVAVVVTAVLILLVVRRLRVPKTPAPDGPRYRFRKRDKVLFYGRKIMRKVSQSTSSLVDTSVSATSRPRMRKKLKMLNIAKKILRIQKETPTLQRKEPPPAVLEADLTEGDLANSHLPSEVLYMLKNVRVLGHFEKPLFLELCRHMVFQRLGQGDYVFRPGQPDASIYVVQDGLLELCLPGPDGKECVVKEVVPGDSVNSLLSILDVITGHQHPQRTVSARAARDSTVLRLPVEAFSAVFTKYPESLVRVVQIIMVRLQRVTFLALHNYLGLTNELFSHEIQPLRLFPSPGLPTRTSPVRGSKRMVSTSATDEPRETPGRPPDPTGAPLPGPTGDPVKPTSLETPSAPLLSRCVSMPGDISGLQGGPRSDFDMAYERGRISVSLQEEASGGSLAAPARTPTQEPREQPAGACEYSYCEDESATGGCPFGPYQGRQTSSIFEAAKQELAKLMRIEDPSLLNSRVLLHHAKAGTIIARQGDQDVSLHFVLWGCLHVYQRMIDKAEDVCLFVAQPGELVGQLAVLTGEPLIFTLRAQRDCTFLRISKSDFYEIMRAQPSVVLSAAHTVAARMSPFVRQMDFAIDWTAVEAGRALYRQGDRSDCTYIVLNGRLRSVIQRGSGKKELVGEYGRGDLIGVVEALTRQPRATTVHAVRDTELAKLPEGTLGHIKRRYPQVVTRLIHLLSQKILGNLQQLQGPFPAGSGLGVPPHSELTNPASNLATVAILPVCAEVPMVAFTLELQHALQAIGPTLLLNSDIIRARLGASALDSIQEFRLSGWLAQQEDAHRIVLYQTDASLTPWTVRCLRQADCILIVGLGDQEPTLGQLEQMLENTAVRALKQLVLLHREEGAGPTRTVEWLNMRSWCSGHLHLRCPRRLFSRRSPAKLHELYEKVFSRRADRHSDFSRLARVLTGNTIALVLGGGGARGCSHIGVLKALEEAGVPVDLVGGTSIGSFIGALYAEERSASRTKQRAREWAKSMTSVLEPVLDLTYPVTSMFTGSAFNRSIHRVFQDKQIEDLWLPYFNVTTDITASAMRVHKDGSLWRYVRASMTLSGYLPPLCDPKDGHLLMDGGYINNLPADIARSMGAKTVIAIDVGSQDETDLSTYGDSLSGWWLLWKRLNPWADKVKVPDMAEIQSRLAYVSCVRQLEVVKSSSYCEYLRPPIDCFKTMDFGKFDQIYDVGYQYGKAVFGGWSRGNVIEKMLTDRRSTDLNESRRADVLAFPSSGFTDLAEIVSRIEPPTSYVSDGCADGEESDCLTEYEEDAGPDCSRDEGGSPEGASPSTASEMEEEKSILRQRRCLPQEPPGSATDA
B8: SEC22B (protein)
chain: VLLTMIARVADGLPLAASMQEDEQSGRDLQQYQSQAKQLFRKLNEQSPTRCTLEAGAMTFHYIIEQGVCYLVLCEAAFPKKLAFAYLEDLHSEFDEQHGKKVPTVSRPYSFIEFDTFIQKTKKLYIDSRARRNLGSINTELQDVQRIMVANIEEVLQRGEALSALDSKANNLSSLSKKYRQDAKYLNMRSTYAKLAAVAVFFIMLIVYVRFWWL

Test system: BAF complex subunits and histone proteins
Assay: Mass spectrometry proteomics of purified HA-SS18 WT and HA-SS18-SSX1 complexes (Tables 5A-5E)
Set-up: species or system human
Conditions: HA-SS18SSX1_NE_peptides: protein co-purified with HA-SS18-SSX1 BAF complexes from soluble nuclear extract (NE), HEK-293T cells

**Q.** Which results are given for B1?
**A.** Total (peptides): 2; Unique (peptides): 2

**Q.** Which “Total (peptides)” value does the source give for B2 here?
**A.** 2

**Q.** And the “Unique (peptides)” value?
**A.** 2

**Q.** With B3 as the molecule, how does the “Total (peptides)” value read?
**A.** 2

**Q.** What about the “Unique (peptides)” value of the same molecule?
**A.** 2

**Q.** For B4, which “Total (peptides)” value is on record?
**A.** 2

**Q.** And the “Unique (peptides)” value?
**A.** 2

**Q.** What does the source list for B5?
**A.** Total (peptides): 2; Unique (peptides): 2

**Q.** What does the source list for B6?
**A.** Total (peptides): 2; Unique (peptides): 2

**Q.** For B7, which “Total (peptides)” value is on record?
**A.** 2

**Q.** What about the “Unique (peptides)” value of the same molecule?
**A.** 2

**Q.** Which “Total (peptides)” value does the source give for B8 here?
**A.** 2

**Q.** What about the “Unique (peptides)” value of the same molecule?
**A.** 2

Same assay, conditions: HA-SS18WT_NE_peptides: HA-SS18 WT complexes purified from nuclear extract (NE), HEK-293T; label = protein identified (Gene Symbol)

**Q.** How did the “Total (peptides)” value turn out when B7 was run?
**A.** 3

**Q.** And the “Unique (peptides)” value?
**A.** 3

Same assay, conditions: HA-SS18WT_NE_peptides: proteins co-purified with HA-SS18 WT from nuclear extract (NE), HEK-293T

**Q.** Which “Total (peptides)” value does the source give for B1 here?
**A.** 2

**Q.** And the “Unique (peptides)” value?
**A.** 2

**Q.** Which results are given for B2?
**A.** Total (peptides): 1; Unique (peptides): 1

**Q.** With B4 as the molecule, how does the “Total (peptides)” value read?
**A.** 2

**Q.** And the “Unique (peptides)” value?
**A.** 2

**Q.** What does the source list for B6?
**A.** Total (peptides): 1; Unique (peptides): 1
